Test results as given in the supplement of paper PMC7125110.
± gives the standard error. Many of these values have a large error.

B1: glmS ribozyme (parent)
chain: AUAAAAGCGCCAGAACUACAGAAAUGUAGUUGACGAGGAGGAGGUUUAUCGAAUUUUCGGCGGAUGCCUCCAAA

Variants of: B1
Assay: kcat; higher = faster cleavage; RNA array
Settings: with glucosamine-6-phosphate
How it was run: (§1)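 Glucosamine-6-phosphate (40 μM to 10 mM) in HEPES/KCl/Mg(OAc)2 buffer was flowed over sequenced MiSeq chips, and tiles were imaged over ~14 h. Barcoded ribozyme variants there had been transcribed in situ by E. coli RNA polymerase and were tracked through a hybridised Cy3 probe at 37 °C. One- or two-exponential decay fits to per-tile medians, normalised to baseline and to non-cleaving reference variants, gave kobs. kcat and KM came from weighted Michaelis–Menten fits across concentrations.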

Variant	kcat
G37U G66C C68A	2.9e-05 ± 2.2e-05 s⁻¹
G38A U55A	4.66e-05 ± 2.8e-05 s⁻¹
G38C G63U	< 1e-05 s⁻¹
G38U U47C	< 1e-05 s⁻¹
A39C C71A	6.38e-05 ± 6.4e-06 s⁻¹
A39G C58G	0.000195 ± 2.9e-05 s⁻¹
A39G C68U	0.00365 ± 0.0023 s⁻¹
A39U A48C	0.000221 ± 2.1e-05 s⁻¹
G40A G44A	3.11e-05 ± 1.6e-05 s⁻¹
G40C G59A	< 1e-05 s⁻¹
G41A C67G C70U	0.00267 ± 0.0014 s⁻¹
G41A C70G	0.000368 ± 0.00014 s⁻¹
G41A U45G	0.000391 ± 0.00013 s⁻¹
G41A U49G	3.79e-05 ± 6.4e-06 s⁻¹
G41C C70G	0.0433 ± 0.038 s⁻¹
G41C C71U	0.000207 ± 2.1e-05 s⁻¹
A42G A48C	0.00074 ± 0.00011 s⁻¹
A42G C68U	0.0205 ± 0.019 s⁻¹
G43C U45G	0.00237 ± 0.00082 s⁻¹
G44A C67U	0.0102 ± 0.0063 s⁻¹

Variant	kcat
G44C C67A	0.00866 ± 0.0045 s⁻¹
U45A U54A	0.115 ± 0.045 s⁻¹
U45A U57C	0.000656 ± 0.00035 s⁻¹
U45C U54G	0.00107 ± 0.00071 s⁻¹
U45G G66A	0.0181 ± 0.015 s⁻¹
U46A U65G	0.00335 ± 0.0021 s⁻¹
U46C A53G	0.00366 ± 0.0005 s⁻¹
U46C C71G	0.000293 ± 0.00017 s⁻¹
U46G A53G	0.00499 ± 0.0025 s⁻¹
U47C C58U	0.000109 ± 7.3e-06 s⁻¹
U47C C61G	< 1e-05 s⁻¹
U47C G63A	< 1e-05 s⁻¹
A48C C67G C68A	4.67e-05 ± 2.4e-05 s⁻¹
A48C C68U	8.75e-05 ± 8.5e-06 s⁻¹
A48U A52G	1.32e-05 ± 2.9e-06 s⁻¹
U49A A53U	1.3e-05 ± 8.1e-06 s⁻¹
U49A C61A	< 1e-05 s⁻¹
C50A C61G C68U	4.44e-05 ± 2.8e-05 s⁻¹
C50A G66A C70G	9.78e-05 ± 6.7e-05 s⁻¹
C50G G63C	2.84e-05 ± 1.1e-05 s⁻¹

Variant	kcat
C50G U56C	1.76e-05 ± 2.6e-06 s⁻¹
C50G U65G	5.8e-05 ± 2.4e-05 s⁻¹
C50U C58A C68U	4.7e-05 ± 2.4e-05 s⁻¹
C50U G59U U69A C70G	5.72e-05 ± 5.5e-05 s⁻¹
A52C U69G	3.13e-05 ± 2.2e-05 s⁻¹
A52G C58U	3.14e-05 ± 2.5e-05 s⁻¹
A52G G66A	0.000403 ± 0.00026 s⁻¹
A52U C71U	0.000457 ± 4e-05 s⁻¹
A53U C67G	0.00417 ± 0.0027 s⁻¹
A53U C71A	0.00637 ± 0.0044 s⁻¹
U54A U55G	0.0218 ± 0.015 s⁻¹
U54C C68U	0.00165 ± 0.00093 s⁻¹
U54C U56A	0.012 ± 0.0074 s⁻¹
U54G C67G	0.000283 ± 0.00028 s⁻¹
U55G C67G	0.000672 ± 0.00037 s⁻¹
U55G U56A	0.0188 ± 0.012 s⁻¹
U57G G66U	1.52e-05 ± 8.3e-06 s⁻¹
C58U G62A C68G	2.81e-05 ± 1.9e-05 s⁻¹
G59C C70A	1.45e-05 ± 1.4e-05 s⁻¹

Variants of: B1
Assay: self-cleavage kobs at 160 uM GlcN6P; higher = faster cleavage; RNA array
Settings: with glucosamine-6-phosphate
How it was run: as §1

Variant	self-cleavage kobs at 160 uM GlcN6P
G37U G66C C68A	2.05e-05 ± 1.9e-05 s⁻¹
A39U A48C	2.6e-05 ± 1.4e-05 s⁻¹
A48C C67G C68A	3.85e-05 ± 1.9e-05 s⁻¹
A52U C71U	2.47e-05 ± 1.7e-05 s⁻¹
G59C C70A	1.68e-05 ± 1.7e-05 s⁻¹

Variants of: B1
Assay: self-cleavage kobs at 2500 uM GlcN6P; higher = faster cleavage; RNA array
Settings: with glucosamine-6-phosphate
How it was run: as §1

Variant	self-cleavage kobs at 2500 uM GlcN6P
G37U G66C C68A	3.28e-05 ± 2.7e-05 s⁻¹
G38A U55A	3.49e-05 ± 2.5e-05 s⁻¹
A42G C68U	0.01 ± 0.0064 s⁻¹
U47C C58U	1.87e-05 ± 9.7e-06 s⁻¹
A48C C67G C68A	5.35e-05 ± 2.8e-05 s⁻¹
C50A C61G C68U	4.63e-05 ± 3.1e-05 s⁻¹
C50U C58A C68U	3.11e-05 ± 2.2e-05 s⁻¹
A53U C71A	0.00903 ± 0.0054 s⁻¹

Looked up one by one from above (3):
Variant	self-cleavage kobs at 2500 uM GlcN6P
G38A U55A	3.49e-05 ± 2.5e-05 s⁻¹
C50A C61G C68U	4.63e-05 ± 3.1e-05 s⁻¹
U47C C58U	1.87e-05 ± 9.7e-06 s⁻¹

Variants of: B1
Assay: KM; higher = weaker cofactor use; RNA array
Settings: with glucosamine-6-phosphate
How it was run: as §1

Variant	KM
A39C C71A	1930 ± 720 µM
A39G C58G	3340 ± 1100 µM
A39G C68U	265 ± 230 µM
A39U A48C	836 ± 370 µM
G41A C67G C70U	6240 ± 4500 µM
G41A C70G	699 ± 480 µM
G41A U45G	1200 ± 800 µM
G41C C71U	2580 ± 590 µM
A42G A48C	4500 ± 1200 µM
G43C U45G	1950 ± 980 µM
G44A C67U	548 ± 430 µM
G44C C67A	2470 ± 1500 µM
U45A U54A	2630 ± 1200 µM
U45A U57C	7520 ± 6000 µM
U45C U54G	829 ± 800 µM
U46A U65G	3090 ± 2900 µM
U46C A53G	1430 ± 280 µM
U46G A53G	1310 ± 890 µM
U47C C58U	12300 ± 1400 µM
A48C C68U	1310 ± 540 µM
A52U C71U	2130 ± 390 µM
A53U C67G	9980 ± 9400 µM
A53U C71A	3120 ± 2900 µM
U54A U55G	1700 ± 1400 µM
U54C C68U	233 ± 210 µM
U54C U56A	2420 ± 1900 µM
U55G C67G	183 ± 170 µM
U55G U56A	3920 ± 3300 µM
U57G G66U	12100 ± 11000 µM

Variants of: B1
Assay: self-cleavage kobs at 640 uM GlcN6P; higher = faster cleavage; RNA array
Settings: with glucosamine-6-phosphate
How it was run: as §1

Variant	self-cleavage kobs at 640 uM GlcN6P
A39C C71A	1.06e-05 ± 9.9e-06 s⁻¹
A39U A48C	0.00523 ± 0.004 s⁻¹
A48C C67G C68A	0.000273 ± 0.00015 s⁻¹
G59C C70A	0.000174 ± 9e-05 s⁻¹

Variants of: B1
Assay: self-cleavage kobs at 10000 uM GlcN6P; higher = faster cleavage; RNA array
Settings: with glucosamine-6-phosphate
How it was run: as §1

Variant	self-cleavage kobs at 10000 uM GlcN6P
G41A C70G	0.00449 ± 0.0037 s⁻¹
U45G G66A	0.0679 ± 0.048 s⁻¹

Variants of: B1
Assay: self-cleavage kobs at 40 uM GlcN6P; higher = faster cleavage; RNA array
Settings: with glucosamine-6-phosphate
How it was run: as §1

Variant	self-cleavage kobs at 40 uM GlcN6P
U46A U65G	2.08e-05 ± 1.1e-05 s⁻¹
